Five molecules from patent US20250066503A1, “CELL INJURY INDUCING THERAPEUTIC DRUG FOR USE IN CANCER THERAPY” (CHUGAI SEIYAKU KABUSHIKI KAISHA, priority 2016, published 2025) can be followed below.

First the molecules themselves.
B1: antibody-1: anti-human CD3ε chain and anti-human GPC3 bispecific antibody (antibody)
heavy: EVQLVETGGSLVQPGKSLKLTCATSGFTFSNAWMHWVRQSPEKQLEWVAQIKAKSNNYATYYAESVKGRFTISRDDSKSNIYLQMNSLKEEDTAVYYCRYVHYGAYYGVDAWGQGTSVTVSSASTKGPSVFPLAPSSKSTSGGTAALGCLVKDYFPEPVTVSWNSGALTSGVHTFPAVLQSSGLYSLSSVVTVPSSSLGTQTYICNVNHKPSNTKVDKKVEPKSCDKTHTCPPCPAPEAAGGPSVFLFPPKPKDTLMISRTPEVTCVVVDVSHEDPEVKFNWYVDGVEVHNAKTKPREEQYASTYRVVSVLTVLHQDWLNGKEYKCKVSNKALPAPIEKTISKAKGQPREPQVYTLPPSRCELTKNQVSLSCAVKGFYPSDIAVEWESNGQPENNYKTTPPVLDSDGSFFLVSKLTVDKSRWQQGNVFSCSVMHEALHNHYTQKSLSLSPDYKDDDDK
light: DVVMTQTPVSMSVSLGGQVSISCRSSQSLVHNNGNTYVSWYIQKPSQSPQLLIYKVSNRFSGISDRFSGSGSGTDFTLKISRVEPDDLGVYYCGQGTQDPYTFGAGTKLELKRTVAAPSVFIFPPSDEQLKSGTASVVCLLNNFYPREAKVQWKVDNALQSGNSQESVTEQDSKDSTYSLSSTLTLSKADYEKHKVYACEVTHQGLSSPVTKSFNRGEC
chain 1: DIVMTQSPLSLPVTPGEPASISCRSSQSLVHSNRNTYLHWYQQKPGQAPRLLIYKVSNRFSGVPDRFSGSGSGTDFTLKISRVEAEDVGVYYCSQNTHVPPTFGQGTKLEIKSSASTKGPSVFPLAPSSKSTSGGTAALGCLVKDYFPEPVTVSWNSGALTSGVHTFPAVLQSSGLYSLSSVVTVPSSSLGTQTYICNVNHKPSNTKVDKKVEPKSCDKTHTCPPCPAPEAAGGPSVFLFPPKPKDTLMISRTPEVTCVVVDVSHEDPEVKFNWYVDGVEVHNAKTKPREEQYASTYRVVSVLTVLHQDWLNGKEYKCKVSNKALPAPIEKTISKAKGQPREPQVCTLPPSRDELTKNQVSLWCLVKGFYPSDIAVEWESNGQPENNYKTTPPVLDSDGSFFLYSKLTVDKSRWQQGNVFSCSVMHEALHNHYTQKSLSLSPHHHHHHHH
chain 2: QVQLVQSGAEVKKPGASVKVSCKASGYTFTDYEMHWIRQPPGQGLEWIGAIDPKTGDTAYSQKFKGRVTLTADKSTSTAYMELSSLTSEDTAVYYCTRFYSYTYWGQGTLVTVSSASVAAPSVFIFPPSDEQLKSGTASVVCLLNNFYPREAKVQWKVDNALQSGNSQESVTEQDSKDSTYSLSSTLTLSKADYEKHKVYACEVTHQGLSSPVTKSFNRGEC
B2: antibody-27: optimized anti-human CD3ε chain and anti-human GPC3 bispecific antibody (antibody)
heavy 1: QVQLVESGGGLVQPGRSLRLSCAASGFTFSNAWMHWVRQAPGKGLEWVAQIKDKSQNYATYYAESVKGRFTISRDDSKNSLYLQMNSLKTEDTAVYYCRYVHYAASYGVDAWGQGTTVTVSSASTKGPSVFPLAPCSRSTSESTAALGCLVKDYFPEPVTVSWNSGALTSGVHTFPAVLQSSGLYSLSSVVTVPSSSLGTKTYTCNVDHKPSNTKVDKRVESKYGPPCPPCPAPEFRGGPKVFLFPPKPKDTLMISRTPEVTCVVVDVSQEDPEVQFNWYVDGVEVHNAKTKPREEQFASTYRVVSVLTVLHQDWLNGKEYKCKVSNKGLPSSIEKTISKAKGQPREPQVYTLPPSQKEMTKNQVSLTCLVKGFYPSDIAVEWESNGQPENNYKTTPPVLDSDGSFFLYSKLTVDKSRWQEGNVFSCSVMHEALHNRYTQKSLSLSP
heavy 2: QVQLVQSGAEVKKPGASVTVSCKASGYTFTDYEMHWIRQPPGEGLEWIGAIDGETPDTAYSEKFKGRVTLTADKSTSTAYMELSSLTSEDTAVYYCTRFYSYTYWGQGTLVTVSSASTKGPSVFPLAPCSRSTSESTAALGCLVKDYFPEPVTVSWNSGALTSGVHTFPAVLQSSGLYSLSSVVTVPSSSLGTQTYTCNVDHKPSNTKVDKRVESKYGPPCPPCPAPEFRGGPKVFLFPPKPKDTLMISRTPEVTCVVVDVSQEDPEVQFNWYVDGVEVHNAKTKPREEQFASTYRVVSVLTVLHQDWLNGKEYKCKVSNKGLPSSIEKTISKAKGQPREPQVYTLPPSQEEMTKNQVSLTCLVKGFYPSDIAVEWESNGQPENNYKTTPPVLDSDGSFFLYSKLTVDKSRWQEGNVFSCSVMHEALHNHYTQESLSLSP
light: DIVMTQSPLSLPVTPGEPASISCRSSQSPVHSNRNTYIQWYQQKPGQAPRLLIYKVSNRFSGVPDRFSGSGSGTDFTLKISRVEAEDVGVYYCYQGTQVPYTFGQGTKLEIKRTVAAPSVFIFPPSDEQLKSGTASVVCLLNNFYPREAKVQWKVDNALQSGNSQESVTEQDSKDSTYSLSSTLTLSKADYEKHKVYACEVTHQGLSSPVTKSFNRGEC
B3: antibody-34: optimized anti-human CD3ε chain and anti-human GPC3 bispecific antibody (antibody)
heavy 1: QVQLVESGGGLVQPGRSLRLSCAASGFTFSNAWMHWVRQAPGKGLEWVAQIKDKSQNYATYVAESVKGRFTISRDDSKNSLYLQMNSLKTEDTAVYYCRYVHYAAGYGVDAWGQGTTVTVSSASTKGPSVFPLAPCSRSTSESTAALGCLVKDYFPEPVTVSWNSGALTSGVHTFPAVLQSSGLYSLSSVVTVPSSSLGTKTYTCNVDHKPSNTKVDKRVESKYGPPCPPCPAPEFRGGPKVFLFPPKPKDTLMISRTPEVTCVVVDVSQEDPEVQFNWYVDGVEVHNAKTKPREEQFASTYRVVSVLTVLHQDWLNGKEYKCKVSNKGLPSSIEKTISKAKGQPREPQVYTLPPSQKEMTKNQVSLTCLVKGFYPSDIAVEWESNGQPENNYKTTPPVLDSDGSFFLYSKLTVDKSRWQEGNVFSCSVMHEALHNRYTQKSLSLSP
heavy 2: QVQLVQSGAEVKKPGASVTVSCKASGYTFTDYEMHWVRQAPGEGLEWMGAIDGETPDTAYSEKFKGRVTLTADKSTSTAYMELSSLTSEDTAVYYCTRFYSYTYWGQGTLVTVSSASTKGPSVFPLAPCSRSTSESTAALGCLVKDYFPEPVTVSWNSGALTSGVHTFPAVLQSSGLYSLSSVVTVPSSSLGTQTYTCNVDHKPSNTKVDKRVESKYGPPCPPCPAPEFRGGPKVFLFPPKPKDTLMISRTPEVTCVVVDVSQEDPEVQFNWYVDGVEVHNAKTKPREEQFASTYRVVSVLTVLHQDWLNGKEYKCKVSNKGLPSSIEKTISKAKGQPREPQVYTLPPSQEEMTKNQVSLTCLVKGFYPSDIAVEWESNGQPENNYKTTPPVLDSDGSFFLYSKLTVDKSRWQEGNVFSCSVMHEALHNHYTQESLSLSP
light: DIVMTQSPLSLPVTPGEPASISCRSSQPLVHSNRNTYLHWYQQKPGQAPRLLIYKVSNRFSGVPDRFSGSGSGTDFTLKISRVEAEDVGVYYCGQGTQVPYTFGQGTKLEIKRTVAAPSVFIFPPSDEQLKSGTASVVCLLNNFYPREAKVQWKVDNALQSGNSQESVTEQDSKDSTYSLSSTLTLSKADYEKHKVYACEVTHQGLSSPVTKSFNRGEC
B4: antibody-25: optimized anti-human CD3ε chain and anti-human GPC3 bispecific antibody (antibody)
heavy 1: QVQLVESGGGLVQPGRSLRLSCAASGFTFSNAWMHWVRQAPGKGLEWVAQIKDKSQNYATYYAESVKGRFTISRDDSKNSLYLQMNSLKTEDTAVYYCRYVHYAASYGVDAWGQGTTVTVSSASTKGPSVFPLAPCSRSTSESTAALGCLVKDYFPEPVTVSWNSGALTSGVHTFPAVLQSSGLYSLSSVVTVPSSSLGTKTYTCNVDHKPSNTKVDKRVESKYGPPCPPCPAPEFRGGPKVFLFPPKPKDTLMISRTPEVTCVVVDVSQEDPEVQFNWYVDGVEVHNAKTKPREEQFASTYRVVSVLTVLHQDWLNGKEYKCKVSNKGLPSSIEKTISKAKGQPREPQVYTLPPSQKEMTKNQVSLTCLVKGFYPSDIAVEWESNGQPENNYKTTPPVLDSDGSFFLYSKLTVDKSRWQEGNVFSCSVMHEALHNRYTQKSLSLSP
heavy 2: QVQLVQSGAEVKKPGASVTVSCKASGYTFTDYEMHWIRQPPGEGLEWIGAIDGETPDTAYSEKFKGRVTLTADKSTSTAYMELSSLTSEDTAVYYCTRFYSYTYWGQGTLVTVSSASTKGPSVFPLAPCSRSTSESTAALGCLVKDYFPEPVTVSWNSGALTSGVHTFPAVLQSSGLYSLSSVVTVPSSSLGTQTYTCNVDHKPSNTKVDKRVESKYGPPCPPCPAPEFRGGPKVFLFPPKPKDTLMISRTPEVTCVVVDVSQEDPEVQFNWYVDGVEVHNAKTKPREEQFASTYRVVSVLTVLHQDWLNGKEYKCKVSNKGLPSSIEKTISKAKGQPREPQVYTLPPSQEEMTKNQVSLTCLVKGFYPSDIAVEWESNGQPENNYKTTPPVLDSDGSFFLYSKLTVDKSRWQEGNVFSCSVMHEALHNHYTQESLSLSP
light: DIVMTQSPLSLPVTPGEPASISCRSSQPPVHSNRNTYLHWYQQKPGQAPRLLIYKVSNRFSGVPDRFSGSGSGTDFTLKISRVEAEDVGVYYCGQGTQVPYTFGQGTKLEIKRTVAAPSVFIFPPSDEQLKSGTASVVCLLNNFYPREAKVQWKVDNALQSGNSQESVTEQDSKDSTYSLSSTLTLSKADYEKHKVYACEVTHQGLSSPVTKSFNRGEC
B5: antibody-38: anti-human CD3ε chain and anti-human GPC3 bispecific antibody; H chains SEQ ID NO: 385 and 402, common L chains SEQ ID NO: 410 (antibody)
heavy 1: QVQLVQSGAEVKKPGASVTVSCKASGYTFTDYEMHWIRQPPGEGLEWIGAIDGPTPDTAYSEKFKGRVTLTADKSTSTAYMELSSLTSEDTAVYYCTRFYSYTYWGQGTLVTVSSASTKGPSVFPLAPCSRSTSESTAALGCLVKDYFPEPVTVSWNSGALTSGVHTFPAVLQSSGLYSLSSVVTVPSSSLGTQTYTCNVDHKPSNTKVDKRVESKYGPPCPPCPAPEFRGGPKVFLFPPKPKDTLMISRTPEVTCVVVDVSQEDPEVQFNWYVDGVEVHNAKTKPREEQFASTYRVVSVLTVLHQDWLNGKEYKCKVSNKGLPSSIEKTISKAKGQPREPQVYTLPPSQEEMTKNQVSLTCLVKGFYPSDIAVEWESNGQPENNYKTTPPVLDSDGSFFLYSKLTVDKSRWQEGNVFSCSVMHEALHNHYTQESLSLSP
heavy 2: QVQLVESGGGVVQPGGSLRLSCAASGFTFSNAWMHWVRQAPGKGLEWVAQIKDKSQNYATYVAESVKGRFTISRADSKNSIYLQMNSLKTEDTAVYYCRYVHYAAGYGVDIWGQGTTVTVSSASTKGPSVFPLAPCSRSTSESTAALGCLVKDYFPEPVTVSWNSGALTSGVHTFPAVLQSSGLYSLSSVVTVPSSSLGTKTYTCNVDHKPSNTKVDKRVESKYGPPCPPCPAPEFRGGPKVFLFPPKPKDTLMISRTPEVTCVVVDVSQEDPEVQFNWYVDGVEVHNAKTKPREEQFASTYRVVSVLTVLHQDWLNGKEYKCKVSNKGLPSSIEKTISKAKGQPREPQVYTLPPSQKEMTKNQVSLTCLVKGFYPSDIAVEWESNGQPENNYKTTPPVLDSDGSFFLYSKLTVDKSRWQEGNVFSCSVMHEALHNHYTQKSLSLSP
light: DIVMTQSPLSLPVTPGEPASISCRSSQPLVHSNRNTYLHWYQQKPGQAPRLLIYKVSNRFSGVPDRFSGSGSGTDFTLKISRVEAEDVGVYYCGQGTQVPYTFGQGTKLEIKRTVAAPSVFIFPPSDEQLKSGTASVVCLLNNFYPREAKVQWKVDNALQSGNSQESVTEQDSKDSTYSLSSTLTLSKADYEKHKVYACEVTHQGLSSPVTKSFNRGEC
modifications: An artificially generated sequence

This data set deals with extracellular matrix (BD Matrigel). The data set is described as follows: Assessment of the ECM-binding ability (ECL on BD Matrigel). Conditions: fluorescence intensity relative to standard antibody MRAH-G1d/MRAL-k0.
Turning to B1, the “ECM binding ratio (standard = 1)” value is on record as 4.0. The value for B2 was 0.6; that for B3 was 0.4. B4: the “ECM binding ratio (standard = 1)” value is 0.5. The value for B5 was 0.3.
